From US9365620B2, “Methods for treating pain” (NoNO NC., priority 2008, dated 2016)
For at least one compound, name, drawing or mass did not settle the structure.

Chains of the proteins cited; added tags and fusions are not shown.
UniProt O55017, whole entry, looked up: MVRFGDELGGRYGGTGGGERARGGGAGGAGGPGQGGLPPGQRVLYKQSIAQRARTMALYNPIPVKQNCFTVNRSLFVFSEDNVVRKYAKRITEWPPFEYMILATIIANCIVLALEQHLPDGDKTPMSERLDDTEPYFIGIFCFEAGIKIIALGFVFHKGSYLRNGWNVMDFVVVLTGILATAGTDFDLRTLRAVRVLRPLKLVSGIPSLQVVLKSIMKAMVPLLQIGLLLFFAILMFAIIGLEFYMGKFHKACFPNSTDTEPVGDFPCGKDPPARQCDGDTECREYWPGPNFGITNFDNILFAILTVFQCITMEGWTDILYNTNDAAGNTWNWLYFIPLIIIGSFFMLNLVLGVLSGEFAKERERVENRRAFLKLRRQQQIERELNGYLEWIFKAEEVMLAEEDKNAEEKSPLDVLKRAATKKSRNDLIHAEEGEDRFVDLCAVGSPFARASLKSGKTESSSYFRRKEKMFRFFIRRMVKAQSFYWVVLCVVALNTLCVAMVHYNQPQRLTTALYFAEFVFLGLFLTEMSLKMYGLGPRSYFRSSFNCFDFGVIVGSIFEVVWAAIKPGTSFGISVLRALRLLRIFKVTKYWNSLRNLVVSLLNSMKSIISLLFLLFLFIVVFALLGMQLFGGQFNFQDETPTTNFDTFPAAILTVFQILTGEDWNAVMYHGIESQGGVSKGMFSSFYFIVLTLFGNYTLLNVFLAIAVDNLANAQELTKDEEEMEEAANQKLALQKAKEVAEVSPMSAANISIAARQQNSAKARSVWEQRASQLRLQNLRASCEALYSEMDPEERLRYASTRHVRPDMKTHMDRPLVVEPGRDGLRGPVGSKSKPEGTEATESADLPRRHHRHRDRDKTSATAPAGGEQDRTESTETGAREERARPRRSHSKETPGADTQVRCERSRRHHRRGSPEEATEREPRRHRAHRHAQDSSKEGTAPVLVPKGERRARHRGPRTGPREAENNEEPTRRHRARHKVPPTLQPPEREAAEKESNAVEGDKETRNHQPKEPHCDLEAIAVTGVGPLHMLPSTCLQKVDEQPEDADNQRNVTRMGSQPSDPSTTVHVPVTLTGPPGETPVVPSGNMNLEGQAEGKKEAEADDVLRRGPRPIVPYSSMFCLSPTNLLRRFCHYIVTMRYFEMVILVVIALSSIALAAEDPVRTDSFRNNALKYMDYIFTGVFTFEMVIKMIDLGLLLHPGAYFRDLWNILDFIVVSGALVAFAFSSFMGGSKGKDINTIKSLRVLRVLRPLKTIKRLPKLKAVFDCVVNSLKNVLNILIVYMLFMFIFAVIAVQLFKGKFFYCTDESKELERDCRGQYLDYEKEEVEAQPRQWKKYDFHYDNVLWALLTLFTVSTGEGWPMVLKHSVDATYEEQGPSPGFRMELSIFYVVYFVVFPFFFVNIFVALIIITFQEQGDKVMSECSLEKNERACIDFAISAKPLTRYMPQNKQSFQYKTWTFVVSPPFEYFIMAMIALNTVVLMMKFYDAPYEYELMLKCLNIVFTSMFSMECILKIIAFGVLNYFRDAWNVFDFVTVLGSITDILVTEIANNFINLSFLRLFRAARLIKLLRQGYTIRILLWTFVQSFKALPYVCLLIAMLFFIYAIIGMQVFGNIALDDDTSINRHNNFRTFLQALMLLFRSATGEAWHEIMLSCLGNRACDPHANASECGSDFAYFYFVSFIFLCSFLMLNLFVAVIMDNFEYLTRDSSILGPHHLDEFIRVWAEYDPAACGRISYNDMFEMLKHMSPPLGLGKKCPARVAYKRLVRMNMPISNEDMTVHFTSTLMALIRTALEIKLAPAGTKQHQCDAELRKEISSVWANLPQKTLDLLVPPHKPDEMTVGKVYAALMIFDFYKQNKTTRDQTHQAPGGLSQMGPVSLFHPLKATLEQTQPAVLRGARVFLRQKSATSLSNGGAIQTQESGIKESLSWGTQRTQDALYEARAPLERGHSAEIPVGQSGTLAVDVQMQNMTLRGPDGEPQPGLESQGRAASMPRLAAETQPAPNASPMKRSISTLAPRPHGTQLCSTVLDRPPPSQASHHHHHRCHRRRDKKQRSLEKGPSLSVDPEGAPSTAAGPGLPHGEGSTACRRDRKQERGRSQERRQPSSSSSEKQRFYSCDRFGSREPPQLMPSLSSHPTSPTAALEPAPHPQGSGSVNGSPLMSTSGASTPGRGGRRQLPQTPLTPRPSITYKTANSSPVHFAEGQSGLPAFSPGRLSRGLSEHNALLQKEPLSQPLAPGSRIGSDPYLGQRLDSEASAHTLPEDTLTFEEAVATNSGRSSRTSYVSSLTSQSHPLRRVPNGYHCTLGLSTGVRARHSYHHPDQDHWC

Biological target: N-type calcium channels (Mus musculus, UniProt O55017)
Assay type: cell-based, Swiss mice

With `COC(=O)C1=C(C)NC(C)=C(C(=O)OC)C1c1ccccc1[N+](=O)[O-]` [nifedipine, reference compound] the “effect on size of Ca^2+ current in presence or absence of Tat-NR2B9c” value was “does significantly affect the size of the Ca^2+ current”.
